# Measured values as given in publication PMC7819943, “Rice protein-binding microarrays: a tool to detect cis-acting elements near promoter regions in rice”.
# The other results are listed elsewhere or left out.
# Target: T1, OsSMF1 (Oryza sativa, UniProt Q6ZLB0 1-436)
# T1 sequence: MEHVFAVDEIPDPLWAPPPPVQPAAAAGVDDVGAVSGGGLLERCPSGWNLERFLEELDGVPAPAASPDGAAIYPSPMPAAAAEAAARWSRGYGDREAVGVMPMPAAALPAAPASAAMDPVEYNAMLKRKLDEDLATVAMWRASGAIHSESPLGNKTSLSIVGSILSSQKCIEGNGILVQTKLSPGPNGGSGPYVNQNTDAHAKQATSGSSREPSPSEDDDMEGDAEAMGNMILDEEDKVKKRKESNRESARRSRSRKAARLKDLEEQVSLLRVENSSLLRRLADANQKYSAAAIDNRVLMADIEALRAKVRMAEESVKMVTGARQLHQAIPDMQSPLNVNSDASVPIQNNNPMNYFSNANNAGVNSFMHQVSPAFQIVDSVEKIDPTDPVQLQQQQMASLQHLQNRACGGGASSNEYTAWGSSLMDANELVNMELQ
# Test: protein-binding microarray (RPBM); PBS, 2% BSA, 51.3 ng/ul salmon testes DNA, 50 uM zinc acetate, 200 nM TF, 25 C, 1 h; high values mean tight binding
# Settings: protein: recombinant; tags: N-terminal polyhistidine and DsRed monomer fusion (pET32a); chain copies: 2; label: CyDye5-dUTP incorporated in the synthesized complementary strand; 3' TTTTT single-stranded linker to array surface; dsDNA, one strand shown
# Outline: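 An Axon 4000B scanner gave the binding signal as per-feature fluorescence intensity in arbitrary units. This followed washing of a custom Agilent array that had been incubated for 1 h at 25 °C with 200 nM protein in PBS, 2% BSA, salmon testes DNA and 50 µM zinc acetate. The proteins were transcription factors fused at the N-terminus to polyhistidine and DsRed, expressed in E. coli BL21-CodonPlus and purified on Ni–NTA.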
row,Sequence,binding signal
1,GCGGCGCCGGTGATGAGGGCCTAGCGTCAGCTGCGGGGCGCGGAGTCACCTAGTGCAG,3470 fluorescence intensity (a.u.)
2,CATGCGTTGTCGCCGCGCCGCGTCAGGCGAGCCACGGCTCCGGAGTCACCTAGTGCAG,6420 fluorescence intensity (a.u.)
3,AAATGTCTCCCAAAACCTCAAAATTGAGTTCCATTATGAACGGAGTCACCTAGTGCAG,61600 fluorescence intensity (a.u.)
4,AATAAATAGGCCTGACGTGAGGCCCACTCGCCACGTCAGCCGGAGTCACCTAGTGCAG,44900 fluorescence intensity (a.u.)
5,CTTTTCACGGATCCTAATTTTGACAGGCAAAGAAAGAAAGCGGAGTCACCTAGTGCAG,41700 fluorescence intensity (a.u.)
6,GTGGCTCTACCGGTGTTGGAGGAGGGAATAAGTTCACCTGCGGAGTCACCTAGTGCAG,3720 fluorescence intensity (a.u.)
7,CTCTCCCATCGTGACTACTTTTGTCTGGATATTGTTTGCGCGGAGTCACCTAGTGCAG,3530 fluorescence intensity (a.u.)
8,ATTTCTTAAATATGTAATTTTGTGATAGATTGTGCAAAATCGGAGTCACCTAGTGCAG,11600 fluorescence intensity (a.u.)
9,GGACACCCACGTCCACATCGGCGACCGCCGCCCCAACGCCCGGAGTCACCTAGTGCAG,3790 fluorescence intensity (a.u.)
10,TAGACCCACCATTAGTCACACACTCTCCACTCCCCAATTTCGGAGTCACCTAGTGCAG,4160 fluorescence intensity (a.u.)
11,CCTCGCCTCCACGACCGGTCGCCGCCTCGTCCGCGACCGCCGGAGTCACCTAGTGCAG,3720 fluorescence intensity (a.u.)
12,TCATGACACTAACCATATTATAGCAATTTGTTACGTACTCCGGAGTCACCTAGTGCAG,3480 fluorescence intensity (a.u.)
13,GGCTTCACCGTGGCGTGGGGCACCAACCATGTCGTCGTGGCGGAGTCACCTAGTGCAG,3170 fluorescence intensity (a.u.)
14,CCCGCCCGCTGCTGACGTGAGGGCCCCACTCCACTTGTCACGGAGTCACCTAGTGCAG,7100 fluorescence intensity (a.u.)
15,CAGGACCCTTCTCTGTGACCAAGCCACGCAGCCTCAGTTTCGGAGTCACCTAGTGCAG,3480 fluorescence intensity (a.u.)
16,ACCTCCTTGCCACCACTGCCTCGGTGCCAGCTGTGTCCTACGGAGTCACCTAGTGCAG,3790 fluorescence intensity (a.u.)
17,CACACCGTGCGCTGTGCTCCACTCCACCATCGCTCGCGACCGGAGTCACCTAGTGCAG,3400 fluorescence intensity (a.u.)
18,AATTCAAATATGCTTCCACGTATTATTTAGCCACTCATTTCGGAGTCACCTAGTGCAG,5200 fluorescence intensity (a.u.)
19,TCCTGAGACACTGACCTGTGGGCCCGACGTCAGCGGGGCCCGGAGTCACCTAGTGCAG,6730 fluorescence intensity (a.u.)
20,TGCGTGACGTGGGGATGAGATTGCGTTGTTGCTGCGCCCGCGGAGTCACCTAGTGCAG,6350 fluorescence intensity (a.u.)
21,GACTGATCCAGAGGAATTTCTGATTTCTCCGTCAAGTAAACGGAGTCACCTAGTGCAG,24800 fluorescence intensity (a.u.)

row,Sequence,binding signal
1,GCAGATTGTAATATAATTTCCACGTCTTGATAGTTATGGTCGGAGTCACCTAGTGCAG,7030 fluorescence intensity (a.u.)
2,AGGTGGACACCGGCAGCGACGTGTCGTGGGTGCAGTGCAACGGAGTCACCTAGTGCAG,5360 fluorescence intensity (a.u.)
3,TATGACATCGGCTCAAAGATAAATGATATGTCATCGGCATCGGAGTCACCTAGTGCAG,3540 fluorescence intensity (a.u.)
4,TGCGCGTCCTGCTCGCCGCTGCCCTCGCTGAGGAGCTCTCCGGAGTCACCTAGTGCAG,63600 fluorescence intensity (a.u.)
5,TGCTAAGTCAGTAGATGGGATCCACGTGTCAGCGACTTTCCGGAGTCACCTAGTGCAG,18200 fluorescence intensity (a.u.)
6,TTAAACCTGCTCTAATTAATGAATCAAACTGTCACCAATGCGGAGTCACCTAGTGCAG,4340 fluorescence intensity (a.u.)
7,AATCGTGCTCGATTGACCTCACTAATTCATCCCTGTAACCCGGAGTCACCTAGTGCAG,25700 fluorescence intensity (a.u.)
8,GTGGCCGGCAGTGCTGCCTAGGAATTCAGGGAAATGTCTCCGGAGTCACCTAGTGCAG,23600 fluorescence intensity (a.u.)
9,CGCCTTGCCCACGCCTCGCCCGTCCGCCCGTCGCAGTCTGCGGAGTCACCTAGTGCAG,3250 fluorescence intensity (a.u.)
10,CCGCGGAGAGGAAGGGGAGCCACGTGGTGAGGAACTCCCCCGGAGTCACCTAGTGCAG,8530 fluorescence intensity (a.u.)
11,TAGACTGCAGTTGGTGATTGGACCACCAATCGCTTGCTTGCGGAGTCACCTAGTGCAG,4100 fluorescence intensity (a.u.)
12,GAAAATAATTGTCGTACACTCGCAGCTATATTTGTTATTTCGGAGTCACCTAGTGCAG,3320 fluorescence intensity (a.u.)
13,ACCTAGTACCGGATATGACACATTCTATTACTACGAATTTCGGAGTCACCTAGTGCAG,3690 fluorescence intensity (a.u.)
14,AAATTTGATCCTCGCACACCAGCTCAGCTACAGATGACATCGGAGTCACCTAGTGCAG,4230 fluorescence intensity (a.u.)
15,CCATTGATAAGGGCCACGAATCCTGTTTCCTTCATGAGAACGGAGTCACCTAGTGCAG,3280 fluorescence intensity (a.u.)
16,TATTATCATATCACTGTTCTTTGAGGATGACGAACAAATCCGGAGTCACCTAGTGCAG,3660 fluorescence intensity (a.u.)
17,TGCCAGATCCGTGCCGGATCTGGCGGATCTGGCGGGGAGGCGGAGTCACCTAGTGCAG,3860 fluorescence intensity (a.u.)
18,GCGCCCAACCATATCTCAGTTAATGAGACATTATAGTTTCCGGAGTCACCTAGTGCAG,18200 fluorescence intensity (a.u.)
19,CGTACAGAGAGAGATGCCATTTCTGTCACCTGGCAACGTCCGGAGTCACCTAGTGCAG,3270 fluorescence intensity (a.u.)
20,CCCACCCCACCACCCACCGGCCCCACACGTCAGCTATACACGGAGTCACCTAGTGCAG,13600 fluorescence intensity (a.u.)
21,TGGGGATCAAATTTATGACGTGACGATCGAGATCGGAGAGCGGAGTCACCTAGTGCAG,5670 fluorescence intensity (a.u.)

# In another format: entries from further up.
row	Sequence	binding signal
5	TGCTAAGTCAGTAGATGGGATCCACGTGTCAGCGACTTTCCGGAGTCACCTAGTGCAG	18200 fluorescence intensity (a.u.)
6	TTAAACCTGCTCTAATTAATGAATCAAACTGTCACCAATGCGGAGTCACCTAGTGCAG	4340 fluorescence intensity (a.u.)
7	AATCGTGCTCGATTGACCTCACTAATTCATCCCTGTAACCCGGAGTCACCTAGTGCAG	25700 fluorescence intensity (a.u.)
8	GTGGCCGGCAGTGCTGCCTAGGAATTCAGGGAAATGTCTCCGGAGTCACCTAGTGCAG	23600 fluorescence intensity (a.u.)
9	CGCCTTGCCCACGCCTCGCCCGTCCGCCCGTCGCAGTCTGCGGAGTCACCTAGTGCAG	3250 fluorescence intensity (a.u.)
10	CCGCGGAGAGGAAGGGGAGCCACGTGGTGAGGAACTCCCCCGGAGTCACCTAGTGCAG	8530 fluorescence intensity (a.u.)
11	TAGACTGCAGTTGGTGATTGGACCACCAATCGCTTGCTTGCGGAGTCACCTAGTGCAG	4100 fluorescence intensity (a.u.)
12	GAAAATAATTGTCGTACACTCGCAGCTATATTTGTTATTTCGGAGTCACCTAGTGCAG	3320 fluorescence intensity (a.u.)
13	ACCTAGTACCGGATATGACACATTCTATTACTACGAATTTCGGAGTCACCTAGTGCAG	3690 fluorescence intensity (a.u.)
